These are yes or no findings as the source states them, for the method shown. Binding seen in cells or lysates may run through a third protein. Binding can be weak; no strength is given. Tags and fused reporters may be left off the sequences shown.
Target: Myc-Tcf7l1
Test: co-IP

binding: binds
B1: mBarhl1-3xFlag-HA (mouse BarH-like 1 homeobox protein, full length) (protein, UniProt P63157 1-327)
chain: MEGSNGFGIDSILSHRAGSPALPKGDPLLGDCRSPLELSPRSESSSDCSSPASPGRDCLETSTSRPGAASGPGLDSHLQPGQLSAPAQSRTVTSSFLIRDILADCKPLAACAPYSSSGQPAAPEPGGRLAAKAGEDFRDKLDKSVSSASSDSEYKVKEEGDREISSSRDSPPVRLKKPRKARTAFTDHQLAQLERSFERQKYLSVQDRMELAASLNLTDTQVKTWYQNRRTKWKRQTAVGLELLAEAGNYSALQRMFPSPYFYPQSLVSNLDPGAALYLYRGPSAPPPALQRPLVPRILIHGLQGASEPPPPLPPLPGVLPRAAQPR
